Construct, isoform or probe ends are uncertain for at least one entry. A weaker result is weaker than the reference pair of the same experiment. At least one verdict rests on a figure or table, not on a statement of the authors. Protein sequences can lack the tags named with them.

The values that follow come from PMC9132426.

The series has as its target T1, human DNA topoisomerase IB (htop1), Prospec ENZ-306 (human) (UniProt P11387).
T1 sequence (looked up, limits assumed): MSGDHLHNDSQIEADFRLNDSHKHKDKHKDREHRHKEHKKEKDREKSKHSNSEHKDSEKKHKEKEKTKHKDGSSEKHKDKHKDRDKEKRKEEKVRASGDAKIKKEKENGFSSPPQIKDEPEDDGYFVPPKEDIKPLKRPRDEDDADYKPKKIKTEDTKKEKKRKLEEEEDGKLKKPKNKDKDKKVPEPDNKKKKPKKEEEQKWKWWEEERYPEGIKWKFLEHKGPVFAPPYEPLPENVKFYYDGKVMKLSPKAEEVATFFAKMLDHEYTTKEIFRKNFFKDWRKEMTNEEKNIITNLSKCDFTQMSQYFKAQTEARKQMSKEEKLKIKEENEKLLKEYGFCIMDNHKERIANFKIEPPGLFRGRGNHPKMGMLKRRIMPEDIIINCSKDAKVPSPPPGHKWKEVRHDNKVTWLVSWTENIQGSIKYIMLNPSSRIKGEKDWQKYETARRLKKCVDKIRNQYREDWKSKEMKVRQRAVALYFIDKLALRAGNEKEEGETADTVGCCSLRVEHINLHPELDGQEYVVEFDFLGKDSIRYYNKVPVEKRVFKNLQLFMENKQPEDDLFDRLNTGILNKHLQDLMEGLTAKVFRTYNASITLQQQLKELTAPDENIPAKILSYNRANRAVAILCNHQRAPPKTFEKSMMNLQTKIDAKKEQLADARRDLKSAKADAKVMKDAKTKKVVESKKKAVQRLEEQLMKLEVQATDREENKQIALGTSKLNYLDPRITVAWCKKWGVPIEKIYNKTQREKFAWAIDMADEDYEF
Briefly: covalent suicide complex (cleavage, denaturing PAGE after trypsin). Particulars: 5' phosphate on CP25, commercial protein.

For the sequence “GAAAAAAGACTTAG / TAAAAATTTTTCTAAGTCTTTTTTC [suicide substrate SS (CL14-FITC/CP25-P)]”, the binding result reads like this: (100 uM membranoid G pre-incubated, cleavage inhibited) “binds more weakly”; (DMSO, no membranoid G) “binds”.
